Measured values: paper doi:10.1101/2020.08.04.235721
For at least one entry, the source does not settle the construct or the ends of the probe. For some of these results: At least one result comes from cells or an extract, where the contact may be indirect. Whether high values mean tight binding is not given here for every scale. Protein sequences can lack the tags named with them.

Legend:
IRP1 (HeLa extract) = biological target: T1, IRP1 (HeLa extract) (UniProt P21399); experiment: EMSA; conditions: relative to no DTT, protein in an extract
T1 sequence (looked up, limits assumed): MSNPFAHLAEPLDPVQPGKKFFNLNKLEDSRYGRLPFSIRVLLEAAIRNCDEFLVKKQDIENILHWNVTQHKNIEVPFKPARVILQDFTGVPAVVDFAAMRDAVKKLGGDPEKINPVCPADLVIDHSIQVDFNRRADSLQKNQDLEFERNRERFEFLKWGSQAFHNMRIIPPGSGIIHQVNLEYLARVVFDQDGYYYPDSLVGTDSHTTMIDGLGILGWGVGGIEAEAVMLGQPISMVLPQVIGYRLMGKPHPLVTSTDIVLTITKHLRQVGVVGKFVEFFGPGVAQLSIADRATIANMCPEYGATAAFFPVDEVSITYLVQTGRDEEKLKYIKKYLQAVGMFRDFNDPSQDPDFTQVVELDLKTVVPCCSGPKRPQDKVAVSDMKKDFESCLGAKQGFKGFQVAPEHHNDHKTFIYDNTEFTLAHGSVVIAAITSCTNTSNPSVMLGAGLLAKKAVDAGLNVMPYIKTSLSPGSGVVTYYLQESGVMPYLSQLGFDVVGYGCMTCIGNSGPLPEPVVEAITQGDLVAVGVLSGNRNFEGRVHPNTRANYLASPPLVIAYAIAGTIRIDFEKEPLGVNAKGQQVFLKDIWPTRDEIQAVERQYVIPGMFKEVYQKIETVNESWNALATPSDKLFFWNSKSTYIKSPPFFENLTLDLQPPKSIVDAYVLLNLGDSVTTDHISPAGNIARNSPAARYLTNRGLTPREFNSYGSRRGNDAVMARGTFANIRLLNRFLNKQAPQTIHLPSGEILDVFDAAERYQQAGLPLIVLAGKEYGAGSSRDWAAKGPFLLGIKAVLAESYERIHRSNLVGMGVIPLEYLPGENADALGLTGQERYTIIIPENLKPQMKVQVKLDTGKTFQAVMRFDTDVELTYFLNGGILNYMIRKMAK

[1] = biological target: T2, IRP1 (recombinant) (human) (UniProt P21399); experiment: EMSA
T2 sequence (looked up, limits assumed): T1 sequence (looked up, limits assumed)

GGCUCCUGAGGCGGCCGUACAAUCCUCGGCAGUGUCCUGAGACUGUAUGGUCAGCUCAGCCCAUG [Hif2α-IRE probe]
binding signal (IRP1 (HeLa extract); siCtr HeLa lysate + 300 mM DTT): 115%
binding signal (IRP1 (HeLa extract); siTrx1 HeLa lysate + 300 mM DTT): 194%
binding signal ([1]; holo-Trx1 (reconstituted FeS-Trx1), relative to apo-Trx1): 44%
binding signal ([1]; no reductant added (reference for 359% and 251%)): 100%
